Measurements published in publication PMC6292949.

Target: CBL bearing a One-STrEP-tag at its carboxyl-terminus (CBL-OST) (mouse (endogenous in thymocytes of gene-targeted mice)) (UniProt P22682)
Experiment: affinity purification with mass spectrometry; OST affinity purification of endogenous CBL-OST from lysates of mouse thymocytes, unstimulated or stimulated for 30 s with anti-CD3 plus anti-CD4 antibodies; protein intensities compared with wild-type cells

B1: Ubiquitin-associated and SH3 domain-containing protein A (UBASH3A) (protein, UniProt Q3V3E1 1-624)
chain: MAAGETQLYAKVSNKLKGRSTPSLLDPLLAMGFPTHTALKALAATGRKTAEAAADWLHGHCNDPSLDDPIPQEYALFLCPTGPLLEKLQEFWRESRRQCAKNRAHEVFPHVTLCDFFTCEDQKVECLYEALRRAGDRILGSFPTLVPLVLHSSISYLGFFINDSPADAIREFAMAFATEAAVLADCTIKPCTKQLHLTLAHKFYPHHQRTLEQLAKAIQPSHSCQWTAALYSRDMRFVHYQTLKALFQYKPQNADELMLSAGDYIFVDPTQQEEASEGWAIGISHRTGCRGFLPENYTERANEADTWVKHRTYTFNLAMDLNSRKDFEASCRGNGEPHTPSMSKSVSSIQALQATISRRGILVVRHGERVDQVFGKSWLQQCTTADGKYYRPDLNFPRSLPRRSNGIKDFENDPPLSSCGIFQARLAGEALLDSGVRVTAVFASPALRCVQTAKHILEELKLEKKLKIRVEPGIFEWMKWEASKATLTFLTLEELKEANFNVDLDYRPALPRCSLMPAESYDQYVERCAVSMGQIINTCPQDMGITLIVSHSSALDSCTRPLLGLPPRECGDFAQLVRKIPSLGMCFCEENREDGKWDLVNPPVKTLTHGANSVFNWRNWISSN
- binding: binds

These are yes or no findings as the source states them, for the method shown. Binding seen in cells or lysates may run through a third protein. Here binding means that the protein was enriched with, or labelled near, the bait; the list need not be complete.
